Experimental data as given in PubChem BioAssay AID720591 (Broad Institute, 2013).
Screen size: about 1,200 compounds; about 60 (5%) were called active. About 1% were inconclusive and are not listed.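 Rule for the calls: active = Decreasing signal and fitted IC50 at most twice the top valid tested dose; inconclusive = Bad fit or a level curve showing 30 to 70% inhibition; inactive = the rest.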 Some of the results follow. Entries with a potency or affinity are not part of this list.

Sequences of proteins named here, by UniProt entry; tags and fusion partners are left off. A change or cut given only in a name is not applied to a line headed by its entry.
UniProt Q9NXA8: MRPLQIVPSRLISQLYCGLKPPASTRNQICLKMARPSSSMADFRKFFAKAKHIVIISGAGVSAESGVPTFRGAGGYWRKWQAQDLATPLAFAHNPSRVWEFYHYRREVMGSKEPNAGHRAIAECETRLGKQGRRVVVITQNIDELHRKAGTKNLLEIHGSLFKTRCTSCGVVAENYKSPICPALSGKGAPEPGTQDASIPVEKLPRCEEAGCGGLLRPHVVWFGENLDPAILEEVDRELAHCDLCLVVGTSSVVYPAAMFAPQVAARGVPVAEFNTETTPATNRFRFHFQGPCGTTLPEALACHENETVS

molecular target: NAD-dependent protein deacylase sirtuin-5, mitochondrial (Homo sapiens) (UniProt Q9NXA8); experiment: SIRT5 desuccinylase inhibitors, dose response, biochemical, fluorescence imaging, cherry-pick, set 5 (AID 720591); conditions: Purified SirT5, succinyl-peptide AMC, trypsin-coupled fluorescence; at 15 µM (top of the series) unless noted;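 note: 0% = median of neutral control wells and -100% = median of positive control wells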

| Structure (SMILES) | activity change, negative = inhibition |
| --- | --- |
| Cc1ccc(CNC(=O)CCCCCNC(=O)N2CCn3c2nc2ccccc23)cc1 | inactive: -20.1% |
| COc1ccc(C(=O)C2CCCN(S(=O)(=O)C(C)C)C2)c(C)c1 (centres undefined) | inactive: -23% |
| COc1ccc(CN2CCN(CCCc3ccccc3)C(CCO)C2)c(OC)c1 (centres undefined) | inactive: 20.8% |
| Cc1ccc2c(c1)CO[C@@]21O[C@H](CCO)C[C@H](O)[C@H]1O | inactive: 3.11% |
| Cc1onc(-c2ccccc2)c1C(=O)c1c[nH]c(C(=O)NCc2ccccn2)c1 | inactive: -14.3% |
| Cc1ccc(S(=O)(=O)N2CCOCC2)cc1NC(=O)CSc1nnc2n1CCCCC2 | inactive: -29.9% |
| Cc1sc(NC(=O)c2ccco2)c(C(c2ccccc2)N2CCC(C)CC2)c1C (centres undefined) | inactive: -24.6% |
| CCCCOC(=O)c1sc2nc(N3CCOCC3)c3c(c2c1N)CC(C)(C)OC3 | inactive: 15.6% |
| Nc1nc(-c2ccc(C(=O)O)cc2)cs1 | inactive: -22.5% |
| Cc1ccc(C(C(=O)NC(C)(C)C)N(Cc2ccco2)C(=O)CCC(=O)Nc2ccccn2)cc1 (centres undefined) | inactive: -11.8% |
| CC(C)(C)N(Cc1ccccc1)C(=O)c1ccc(Br)o1 | inactive: 4.01% |
| C[C@H](CO)N1C[C@H](C)[C@@H](CN(C)CC2CC2)Oc2c(NC(=O)Cc3ccccc3)cccc2C1=O | inactive: -31.4% |
| CC(NC(=O)c1ccncc1)C(c1cccs1)N1CCOCC1 (centres undefined) | inactive: 22.9% |
| COc1cccc(-c2ccc3c(c2)O[C@H](CN(C)C(=O)c2ccccc2F)[C@H](C)CN([C@H](C)CO)S3(=O)=O)c1 | inactive: -23.4% |
| O=C(COc1ccc(Cl)cc1Cl)Nc1ccc(CN2CCOCC2)cc1 | inactive: 5.05% |
| CCCCn1c(N)c(N(CCOC)C(=O)c2c(CC)noc2C)c(=O)[nH]c1=O | inactive: -31.8% |
| CCOc1ccc(-c2noc(CCCC(=O)NC3CCCC3)n2)cc1OC | inactive: 1.29% |
| Cc1csc(NC(=O)c2cc3ccccc3o2)n1 | inactive: 12.3% |
| O=C(Nc1cccc(Cl)c1)Nc1cccc(C(=O)O)c1 | inactive: -26.9% |
| C/C(N)=C(/C#N)C(=O)CSc1nnc(Nc2ccccc2)s1 | inactive: -26.5% |

An excerpt of these results, in CSV form:
Structure (SMILES),"activity change, negative = inhibition"
CCOc1ccc(-c2noc(CCCC(=O)NC3CCCC3)n2)cc1OC,inactive: 1.29%
Cc1csc(NC(=O)c2cc3ccccc3o2)n1,inactive: 12.3%
O=C(Nc1cccc(Cl)c1)Nc1cccc(C(=O)O)c1,inactive: -26.9%

Next records

| Structure (SMILES) | activity change, negative = inhibition |
| --- | --- |
| COc1ccc(S(=O)(=O)N2CCOc3ccccc32)cc1 | inactive: -30% |
| CC(=O)c1cc(-c2ccc(F)cc2)n(CCC(=O)NC(C)(C)C)c1C | inactive: 40.1% |
| CCOc1ccc(C(C)C)cc1S(=O)(=O)n1ccnc1C | inactive: -11.2% |
| CCCc1cc(=O)oc2cc(C)cc(OCC(=O)NCCCN3CCCC3=O)c12 | inactive: -12.3% |
| COc1ccc2cc3cc(C(=O)NCCCN4CCc5ccccc5C4)sc3nc2c1 | inactive: -24.2% |
| COc1cnn(-c2ccc(Br)cc2)c(=O)c1SCc1ccccc1 | inactive: -23.7% |
| Cc1cc(C)n(CC(=O)c2cccc(N)c2)n1 | inactive: 8.12% |
| Cc1ccc(OCCNC(=O)C2CCCCC2)cc1 | inactive: 7.97% |
| Cc1ccc2nc(SC(C)C(=O)N3CC(C)OC(C)C3)[nH]c2c1 (centres undefined) | inactive: 11% |
| Cc1c(Cc2ccc3c(c2)OCO3)sc(NC(=O)c2ccccc2)c1C(N)=O | inactive: -11.1% |
| CC(C)(C)OC(=O)NCCCC[C@H](NC(=O)c1nc[nH]c1C(=O)NCC(=O)OCc1ccccc1)C(=O)OC(C)(C)C | inactive: -29% |
| CCOc1ccccc1NC(=O)COC(=O)CC(C)(C)CC1=NS(=O)(=O)c2ccccc2N1 | inactive: -22.2% |
| Cn1nnnc1SCC(=O)NNC(=O)c1ccc(Br)cc1 | inactive: -20.3% |
| N#Cc1c(SCC(=O)Nc2nccs2)sc2c(O)cc(=O)[nH]c12 | inactive: -20.5% |
| Cc1nc(NC(=O)c2cc3ccccc3o2)sc1C | inactive: 7.97% |
| CCc1ccc(S(=O)(=O)c2ccc(-n3nc(C)cc3N)cc2)cc1 | inactive: 21.2% |
| O=C(c1ccc(Cl)cc1)C1CCCN(C(=O)c2csnn2)C1 (centres undefined) | inactive: 9.65% |
| CCOC(=O)CC1C(=O)NCCN1C1CCCC1 (centres undefined) | inactive: 3.55% |
| Cc1cc(N2CCN(C)CC2)nc2ccc(NC(=O)CCC(=O)NCCc3ccc(Cl)cc3)cc12 | inactive: -21.9% |
| COC(=O)c1cc(S(=O)(=O)NCc2ccc(Br)cc2)c[nH]1 | inactive: -13.8% |

| Structure (SMILES) | activity change, negative = inhibition |
| --- | --- |
| CC(=O)N1N=C(N)SC12CCCC2 | inactive: -1.47% |
| O=C(O)CSCC(=O)Nc1ccc(Br)c(C(F)(F)F)c1 | inactive: -21.2% |
| COc1ccc2c(CN3CCCC3)cc(=O)oc2c1 | inactive: 22.9% |
| CN(C)CCn1c(NCc2ccc3c(c2)OCO3)nc2ccccc21 | inactive: 2.08% |
| CCc1cc2ccc(OC)cc2nc1SCC(=O)Nc1cc(C)on1 | inactive: 1.38% |
| Cc1nn(-c2ccccc2)c2c1c(C)c(CCC(=O)NCC1CCCO1)c(=O)n2C (centres undefined) | inactive: -0.213% |
| CCCCNC(=O)N1CCN(Cc2ccc(F)cc2)CC1 | inactive: -9.24% |
| CCCNS(=O)(=O)c1cc2c3c(c1)C(C)C(=O)N3CCC2 (centres undefined) | inactive: -20.1% |
| Cc1ccccc1CN1CCN(Cc2ccc3cccc(F)c3n2)CC1CCO (centres undefined) | inactive: -26.9% |
| CNC(=O)CSc1nnc(-c2ccco2)n1-c1ccc(C)cc1 | inactive: -17.9% |
| C[C@H]1CN([C@@H](C)CO)C(=O)c2cc(Br)cnc2O[C@H]1CN(C)C(=O)c1ccccn1 | inactive: 24.1% |
| Cc1ccc(NC(=O)CN2CCOCC2)cc1Cl | inactive: 10.2% |
| O=C(Nc1ccccc1)c1cccc(Cn2cc(C(F)(F)F)ccc2=O)c1 | inactive: -12.3% |
| Cc1ccc(CNC(=O)C2CCCN(c3nc4ccsc4c(=O)s3)C2)cc1 (centres undefined) | inactive: 8.12% |
| C=CCn1ncc(OC)c(Cl)c1=O | inactive: 9.56% |
| C=CC[C@@H](CC(=O)N(CCO)Cc1ccccc1)C(=O)N[C@H](COC(=O)[C@@H](CC=C)CC(=O)OC(C)(C)C)c1ccccc1 | inactive: -2.59% |
| Cc1csc(CNc2ncnc3ccc(-c4cccc(Cl)c4)cc23)c1 | inactive: -33.7% |
| COc1ccc(Cc2c(-c3cccc(Cl)c3)nc3ccc(C)cn23)c(C)c1 | inactive: 18.1% |
| NC(=O)NC(CC(=O)NCCc1ccc(S(N)(=O)=O)cc1)c1ccc(Cl)cc1 (centres undefined) | inactive: -21.5% |
